From PubChem BioAssay record AID1053133 (Broad Institute, 2014).

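Plate-reader measure of the Venus reporter marking one vaccinia stage in infected cells (the cell line is not named here); read time unknown.
The test concentration is not given here.
Percent change in Venus reporter signal; lower (more negative) values mean stronger inhibition of that viral stage.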

Values are in %.
How 0% and 100% were set is not given here.
Common to all entries: measured here: Venus reporter, other viral stage.
Part of the compounds only, not a random draw; the main read-out is not listed here.

| # | SMILES | activity change (Venus) (%) |
|---|---|---|
| 1 | `Cc1ccc(S(=O)(=O)N(C)C[C@@H]2OCCCC[C@@H](C)Oc3ccc(NC(=O)c4ccccc4)cc3C(=O)N([C@@H](C)CO)C[C@@H]2C)cc1` | -27.69 |
| 2 | `CN1c2ccc(-c3cccc(F)c3)cc2[C@@H]2[C@@H](CCN2C(=O)Cc2ccccc2)[C@@H]1CO` | -71.34 |
| 3 | `C/C=C/c1ccc2c(c1)O[C@H](CN(C)Cc1ccccc1F)[C@@H](C)CN([C@H](C)CO)S2(=O)=O` | -48.24 |
| 4 | `C/C=C/c1ccc([C@@H]2[C@@H](CO)N3CCCCN(C(=O)Nc4cc(F)ccc4F)C[C@H]23)cc1` | -22.44 |
| 5 | `C[C@@H]1CN([C@@H](C)CO)C(=O)c2c(c3ccccc3n2C)-c2ccccc2CO[C@H]1CN(C)S(=O)(=O)c1ccsc1` | -39.36 |
| 6 | `CCCNC(=O)N(C)C[C@@H]1Oc2ncc(C#CC3CCCCC3)cc2C(=O)N([C@H](C)CO)C[C@@H]1C` | -9.082 |
| 7 | `O=C(Nc1ccc(F)cc1)N1CCCCN2[C@H](CO)[C@@H](c3ccc(C#Cc4ccccc4)cc3)[C@H]2C1` | -35.81 |
| 8 | `COc1ccc(S(=O)(=O)N(C)C[C@@H]2OCCCC[C@@H](C)Oc3ccc(NS(=O)(=O)c4c(C)noc4C)cc3C(=O)N([C@H](C)CO)C[C@H]2C)cc1` | -43.04 |
| 9 | `CO[C@H]1CN(C)C(=O)c2ccc(NC(=O)Nc3ccc(C(F)(F)F)cc3)cc2OC[C@H](C)NC[C@H]1C` | -29.65 |
| 10 | `COc1cccc(CN2C[C@@H]3N[C@H](C2)C3c2ccc(-c3cccc(C#N)c3)cc2)c1` (stereo partly shown) | -57.2 |
| 11 | `C[C@@H]1CN([C@H](C)CO)S(=O)(=O)c2ccc(C#CCC3CCCC3)cc2O[C@H]1CN(C)C(=O)c1ccccn1` | -47.41 |
| 12 | `OC[C@H]1[C@@H](c2ccc(/C=C/c3ccccc3)cc2)[C@H]2CN(Cc3ccncc3)CCCCN21` | -41.67 |
| 13 | `C[C@@H]1CN([C@@H](C)CO)C(=O)c2cc(-c3cccnc3)cnc2O[C@@H]1CN(C)Cc1ccc(-c2ccccc2)cc1` | -44.47 |
| 14 | `COc1ccc(NC(=O)N2CCCCN3[C@H](C2)[C@@H](c2ccc(C#Cc4ccccc4)cc2)[C@@H]3CO)cc1` | -51.38 |
| 15 | `CCS(=O)(=O)N1CC(=O)N2[C@H](C1)[C@@H](c1ccc(C#CCC(C)C)cc1)[C@@H]2CO` | -41.92 |
| 16 | `CC(C)CC#Cc1ccc2c(c1)O[C@@H](CN(C)C)[C@H](C)CN([C@H](C)CO)S2(=O)=O` | -29.61 |
| 17 | `N#C[C@H]1[C@@H](c2ccc(C3=CCCCC3)cc2)[C@@H](CO)N1S(=O)(=O)c1cccc(F)c1` | -33.71 |
| 18 | `COc1ccc(C#Cc2ccc([C@@H]3[C@H]4CN(C(=O)c5ccncc5)CCCCN4[C@H]3CO)cc2)cc1` | -37.49 |
| 19 | `COc1ccccc1-c1ccc2c(c1)O[C@H](CN(C)Cc1ccc3c(c1)OCO3)[C@H](C)CN([C@@H](C)CO)S2(=O)=O` | -40.95 |
| 20 | `N#C[C@@H]1[C@H](c2ccc(C#Cc3ccccc3F)cc2)[C@H](CO)N1C(=O)c1cccnc1` | -19.06 |
| 21 | `COc1ccccc1C#Cc1ccc([C@@H]2[C@H](C#N)N(C(=O)C3CCCCC3)[C@H]2CO)cc1` | -32.13 |
| 22 | `C[C@H](CO)N1C[C@H](C)[C@@H](CN(C)Cc2ccc(F)cc2)Oc2cc(C#CC(C)(C)O)ccc2S1(=O)=O` | -60.84 |
| 23 | `C[C@H](NC(=O)C[C@@H]1C[C@H]2c3cc(NC(=O)Nc4ccc(C(F)(F)F)cc4)ccc3O[C@H]2[C@H](CO)O1)c1ccccc1` | -66.38 |
| 24 | `C[C@@H]1CN([C@@H](C)CO)C(=O)c2cccc(NC(=O)Nc3ccc(F)cc3)c2O[C@@H]1CN(C)C(=O)Nc1ccc(C(F)(F)F)cc1` | -23.09 |
| 25 | `O=C(C1CC1)N1CC(=O)N2[C@H](C1)[C@H](c1ccc(C#Cc3cccc(F)c3)cc1)[C@@H]2CO` | -89.09 |
| 26 | `C/C=C/c1ccc([C@@H]2[C@H]3CN(C(=O)Nc4ccc(F)cc4)CCCCN3[C@H]2CO)cc1` | -46.68 |
| 27 | `N#Cc1cccc(-c2ccc([C@H]3[C@H](CO)N4CCCCN(C(=O)Nc5ccccc5)C[C@@H]34)cc2)c1` | -41.67 |
| 28 | `CC(=O)N(C)C[C@@H]1Oc2cc(C#CC3CCCCC3)ccc2S(=O)(=O)N([C@H](C)CO)C[C@@H]1C` | -23.11 |
| 29 | `C[C@H]1CN([C@@H](C)CO)C(=O)c2cc(/C=C/c3ccccc3)cnc2O[C@H]1CN(C)S(=O)(=O)c1cccs1` | -34.29 |
| 30 | `C[C@@H]1CCCCO[C@@H](CN(C)C(=O)C2CCCCC2)[C@@H](C)CN([C@H](C)CO)C(=O)c2cc(NS(=O)(=O)c3cccs3)ccc2O1` | -41.78 |
| 31 | `O=C(C[C@H]1CC[C@@H]2[C@H](COC[C@@H](O)CN2S(=O)(=O)c2cccc(F)c2)O1)Nc1ccc(-c2ccccc2)cc1` | -46.04 |
| 32 | `N#C[C@@H]1[C@@H](c2ccc(-c3ccccc3F)cc2)[C@H](CO)N1C(=O)Cc1ccccc1` | -49.36 |
| 33 | `Cc1ccc(S(=O)(=O)Nc2ccc3c(c2)C(=O)N([C@@H](C)CO)C[C@@H](C)[C@@H](CN(C)Cc2ccc4c(c2)OCO4)O3)cc1` | -36.34 |
| 34 | `COc1ccc(CN(C)C[C@H]2OCCCC[C@@H](C)Oc3ccc(NC(=O)Nc4ccc(OC)cc4)cc3C(=O)N([C@H](C)CO)C[C@H]2C)cc1` | -56.2 |
| 35 | `O=C(C[C@@H]1CC[C@@H]2[C@H](COC[C@H](O)CN2Cc2cccc(C(F)(F)F)c2)O1)NCc1ccc(Cl)cc1` | -48.21 |
| 36 | `C[C@H](CO)N1C[C@H](C)[C@@H](CN(C)C)Oc2cc(C#CC3CCCC3)ccc2S1(=O)=O` | -41.38 |
| 37 | `Cc1noc(C)c1S(=O)(=O)N(C)C[C@@H]1OCCCC[C@@H](C)Oc2ccc(NS(=O)(=O)c3cccs3)cc2C(=O)N([C@H](C)CO)C[C@H]1C` | -49.68 |
| 38 | `C[C@@H]1CN([C@@H](C)CO)S(=O)(=O)c2ccc(C#Cc3cccc(F)c3)cc2O[C@H]1CN(C)S(=O)(=O)c1cn(C)cn1` | -36.64 |
| 39 | `C[C@H]1CN([C@@H](C)CO)S(=O)(=O)c2ccc(C#Cc3ccc(F)cc3)cc2O[C@H]1CN(C)S(C)(=O)=O` | -57.5 |
| 40 | `O=C(NC1CCCCC1)N1CC(=O)N2[C@H](C1)[C@@H](c1ccc(/C=C/c3ccccc3)cc1)[C@@H]2CO` | -39.84 |
| 41 | `Cc1ccc(S(=O)(=O)Nc2ccc3c(c2)C(=O)N([C@H](C)CO)C[C@@H](C)[C@H](CN(C)C(=O)Nc2ccc4c(c2)OCO4)OCCCC[C@@H](C)O3)cc1` | -18.75 |
| 42 | `C[C@H]1CN([C@@H](C)CO)C(=O)c2cc(/C=C/c3ccccc3)cnc2O[C@@H]1CN(C)S(=O)(=O)c1ccc(F)cc1` | -33.35 |
| 43 | `CCCN(C)C[C@H]1OCCCC[C@@H](C)Oc2ccc(NC(=O)Nc3ccc(OC)cc3)cc2C(=O)N([C@@H](C)CO)C[C@H]1C` | -26.1 |
| 44 | `Cc1ccc(S(=O)(=O)N(C)C[C@@H]2Oc3cc(-c4cccc(F)c4)ccc3S(=O)(=O)N([C@H](C)CO)C[C@H]2C)cc1` | -31.67 |
| 45 | `C[C@@H]1CCCCO[C@@H](CN(C)C(=O)C2CCCCC2)[C@H](C)CN([C@@H](C)CO)C(=O)c2cc(NC(=O)Nc3ccc(C(F)(F)F)cc3)ccc2O1` | -30.04 |
| 46 | `Cc1noc(C)c1S(=O)(=O)Nc1ccc2c(c1)C(=O)N([C@@H](C)CO)C[C@H](C)[C@H](CN(C)Cc1ccc3c(c1)OCO3)OCCCC[C@H](C)O2` | -31.34 |

For reference, 6 entries once more:

SMILES	activity change (Venus) (%)
CCCN(C)C[C@H]1OCCCC[C@@H](C)Oc2ccc(NC(=O)Nc3ccc(OC)cc3)cc2C(=O)N([C@@H](C)CO)C[C@H]1C	-26.1
C[C@@H]1CN([C@@H](C)CO)C(=O)c2cccc(NC(=O)Nc3ccc(F)cc3)c2O[C@@H]1CN(C)C(=O)Nc1ccc(C(F)(F)F)cc1	-23.09
OC[C@H]1[C@@H](c2ccc(/C=C/c3ccccc3)cc2)[C@H]2CN(Cc3ccncc3)CCCCN21	-41.67
Cc1noc(C)c1S(=O)(=O)N(C)C[C@@H]1OCCCC[C@@H](C)Oc2ccc(NS(=O)(=O)c3cccs3)cc2C(=O)N([C@H](C)CO)C[C@H]1C	-49.68
O=C(Nc1ccc(F)cc1)N1CCCCN2[C@H](CO)[C@@H](c3ccc(C#Cc4ccccc4)cc3)[C@H]2C1	-35.81
COc1ccc(S(=O)(=O)N(C)C[C@@H]2OCCCC[C@@H](C)Oc3ccc(NS(=O)(=O)c4c(C)noc4C)cc3C(=O)N([C@H](C)CO)C[C@H]2C)cc1	-43.04